{
  "source": "patent US10457700B2",
  "about": "“Platinum prodrugs and methods of making and using thereof” (UNIVERSITY OF GEORGIA RESEARCH FOUNDATION, INC., priority 2015, dated 2019)",
  "system": "A2780 cells",
  "assay": "MTT cytotoxicity assay in A2780 cells",
  "assay_type": "cell-based",
  "settings": "72 h",
  "description": "Human prostate cancer cell line PC3 and DU145 were procured from the American type culture collection (ATCC). Ovarian cancer A2780 cells were obtained from Prof, Robert Brown, Imperial College London. […] Cells were passed every 3 to 4 days and restarted from frozen stocks upon reaching 20 passages.\nPC3, A2780, or A2780/CP70 cells (2000 cells/well/100 μL) were seeded on a 96-well plate in 100 μL of desired medium and incubated for 24 h. After 24 h, media was removed and fresh media was added. The cells were treated with different constructs at varying concentrations and incubated for 72 h at 37° C. in 5% CO2. The cells were then treated with 20 μL of MTT (5 mg/mL in PBS) for 5 h. The medium was removed, the cells were lysed with 100 μL of DMSO, and the absorbance of the purple formazan was recorded at 550 nm using a Bio-Tek Synergy HT microplate reader. The background absorbance for each well was measured at 800 nm. Each well was performed in triplicate. […] Cells were grown for 7 days in high glucose medium prior to the MTT experiment. Cytotoxicity was expressed as mean percentage increase relative to the unexposed control±SD. Control values were set at 0% cytotoxicity or 100% cell viability.",
  "data": [
    {"compound": "N.N.[Cl][Pt][Cl]", "note": "[Cisplatin, cis-diamminedichloridoplatinum(II)]", "values": [
      {"measurement": "IC50", "result": "560 ± 80", "unit": "nM"}
    ]}
  ]
}
